# Laboratory results from patent US10004762B2, “Dialysis formulation” (Gambro Lundia AB, priority 2013, dated 2018).
# Test: Acute inflammation: plasma PTX-3 by Human Pentraxin 3/TSG-14 Quantikine ELISA
# Type: in vivo
substance,measurement,setting,value
"PTX-3: acute phase protein Pentraxin 3, marker for acute inflammation",post-dialysis values relative to controls,HD patients post-dialysis vs controls,4 times
same,P1 pre-dialysis plasma concentration ± SEM,all HD patients,1.8 ± 0.2 ng/mL
same,P2 post-dialysis plasma concentration ± SEM,all HD patients,3.3 ± 0.4 ng/mL
same,"plasma concentration, controls",healthy controls,0.7 ± 0.02 ng/mL
